Source: US20250019361A1, “(3-QUINOLYL)-QUINAZOLINE” (BASF SE, priority 2021, published 2025)
Some entries share one result that the patent states for a list of compounds.

Assays:
Sclerotinia sclerotiorum [1] = assay: Green house: preventative fungicidal control of white mold on soybeans caused by Sclerotinia sclerotiorum (SCLESC P1); details: 250 ppm, assessed after 6 days, untreated plants 80% infected
Botrytis cinerea [2] = assay: Green house: preventative fungicidal control of Botrytis cinerea on leaves of green pepper; format: in vivo; details: 250 ppm, sprayed one day before inoculation, assessed after 5 days, untreated plants 80% infected
Botrytis cinerea [3] = assay: Microtest: activity against the grey mold Botrytis cinerea in the microtiterplate test; format: cell-based; details: 31 ppm
Sclerotinia sclerotiorum [4] = assay: Green house: preventative fungicidal control of white mold on oilseed rape caused by Sclerotinia sclerotiorum SCLESC P1 OSR; format: in vivo; details: 100 g/ha, assessed after 14 days, untreated plants 80% infected
Cercospora sojina = assay: Microtest: activity against Cercospora sojina in the microtiterplate test; format: cell-based; details: 31 ppm
Septoria tritici = assay: Microtest: activity against leaf blotch on wheat caused by Septoria tritici; format: cell-based; details: 31 ppm
Procedure: The active compounds were formulated separately as a stock solution having a concentration of 10000 ppm in dimethyl sulfoxide.
The stock solutions were mixed according to the ratio, pipetted onto a micro titer plate (MTP) and diluted with water to the stated concentrations.
A spore suspension of Septoria tritici in an aqueous biomalt or yeast-bactopeptone-glycerine or DOB solution was then added.
The measured parameters were compared to the growth of the active compound-free control variant (100%) and the fungus-free blank value to determine the relative growth in % of the pathogens in the respective active compounds.

CN1c2c(ccc(F)c2F)C(c2cnc3c(F)cccc3c2)=NC1(C)C [Ex-76]
growth of the pathogen (fungal attack on the leaves visually assessed as % diseased leaf area) (Sclerotinia sclerotiorum [1]): at most 15%
growth of the pathogen (fungal attack on the leaves visually assessed as % diseased leaf area) (Botrytis cinerea [2]): at most 13%

CC1(C)N=C(c2cnc3ccccc3c2)c2cccc(F)c2N1 [Ex-24]
growth of the pathogen (relative growth in %, control 100%) (Botrytis cinerea [3]): up to 14%

(2-aminophenyl)-(8-fluoro-3-quinolyl)methanone [Ex-3]
growth of the pathogen (fungal attack on the leaves visually assessed as % diseased leaf area) (Botrytis cinerea [2]): at most 13%
growth of the pathogen (fungal attack on the leaves visually assessed as % diseased leaf area) (Sclerotinia sclerotiorum [4]): at most 12%
growth of the pathogen (relative growth in %, control 100%) (Botrytis cinerea [3]): up to 14%
growth of the pathogen (relative growth in %, control 100%) (Cercospora sojina): up to 12%
growth of the pathogen (relative growth in %, control 100%) (Septoria tritici): up to 18%

CC(C)C(=O)N1c2c(F)cccc2C(c2cnc3c(F)cccc3c2)=NC1(C)C [Ex-21]
growth of the pathogen (relative growth in %, control 100%) (Botrytis cinerea [3]): up to 14%

(8-fluoro-3-quinolyl)-(2-nitrophenyl)methanol [Ex-2]
growth of the pathogen (fungal attack on the leaves visually assessed as % diseased leaf area) (Botrytis cinerea [2]): at most 13%
growth of the pathogen (fungal attack on the leaves visually assessed as % diseased leaf area) (Sclerotinia sclerotiorum [4]): at most 12%
growth of the pathogen (relative growth in %, control 100%) (Botrytis cinerea [3]): up to 14%
growth of the pathogen (relative growth in %, control 100%) (Cercospora sojina): up to 12%
growth of the pathogen (relative growth in %, control 100%) (Septoria tritici): up to 18%
